In the assay the target is T1, Flag-tagged ALK2 (UniProt Q04771).
T1 sequence: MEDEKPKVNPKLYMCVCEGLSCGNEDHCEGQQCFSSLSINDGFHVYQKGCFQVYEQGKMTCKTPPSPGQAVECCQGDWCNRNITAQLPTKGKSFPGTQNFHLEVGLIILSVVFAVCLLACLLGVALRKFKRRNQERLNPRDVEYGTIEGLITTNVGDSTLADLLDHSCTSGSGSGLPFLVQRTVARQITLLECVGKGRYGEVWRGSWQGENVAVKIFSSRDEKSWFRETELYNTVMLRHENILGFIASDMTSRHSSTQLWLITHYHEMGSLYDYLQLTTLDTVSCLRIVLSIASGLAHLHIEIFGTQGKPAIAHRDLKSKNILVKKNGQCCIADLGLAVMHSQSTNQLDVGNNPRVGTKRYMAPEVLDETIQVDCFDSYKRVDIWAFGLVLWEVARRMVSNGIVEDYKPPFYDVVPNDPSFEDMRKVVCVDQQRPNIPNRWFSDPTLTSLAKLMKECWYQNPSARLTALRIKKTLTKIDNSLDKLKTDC
The experiment in a line: cross-linking + co-IP; HepG2 cells expressing Flag-ALK2, HA-ALK4 or 6Myc-ActRIIA; cross-linked with BS3 (cell-impermeable); lysates immunoprecipitated with anti-Flag antibody, Western blot with anti-Flag, anti-HA or anti-Myc; also with activin B treatment (slowly migrating bands tended to decrease).

These are yes or no findings as the source states them, for the method shown. Binding seen in cells or lysates may run through a third protein. Some results given as binding are weak or reduced against the parent protein; the word gives no strength. Where a sequence is shown, tags or fusion partners need not be part of it.

B1: HA-tagged ALK4 (receptor, UniProt P36896 24-505)
chain: SGPRGVQALLCACTSCLQANYTCETDGACMVSIFNLDGMEHHVRTCIPKVELVPAGKPFYCLSSEDLRNTHCCYTDYCNRIDLRVPSGHLKEPEHPSMWGPVELVGIIAGPVFLLFLIIIIVFLVINYHQRVYHNRQRLDMEDPSCEMCLSKDKTLQDLVYDLSTSGSGSGLPLFVQRTVARTIVLQEIIGKGRFGEVWRGRWRGGDVAVKIFSSREERSWFREAEIYQTVMLRHENILGFIAADNKDNGTWTQLWLVSDYHEHGSLFDYLNRYTVTIEGMIKLALSAASGLAHLHMEIVGTQGKPGIAHRDLKSKNILVKKNGMCAIADLGLAVRHDAVTDTIDIAPNQRVGTKRYMAPEVLDETINMKHFDSFKCADIYALGLVYWEIARRCNSGGVHEEYQLPYYDLVPSDPSIEEMRKVVCDQKLRPNIPNWWQSYEALRVMGKMMRECWYANGAARLTALRIKKTLSQLSVQEDVKI
As for B1, the binding entry is “binds”.

Source of the values: publication PMC5138601.
